# Reference: PubChem BioAssay (NCATS)
# Several values for one entry are separate records, joined by “and”; a condition that tells them apart may be missing. Identical values can stand only once. The shares of active, inactive and inconclusive entries below differ from those in the screen. Potencies beside an inconclusive call are fits to weak or partial responses and may not hold up. Activity calls are given as the source filed them. Calls follow the shape of the dose curve; as a rule, active = well fitted curve in the direction sought with a large enough effect; inconclusive = small, poorly fitted or top-dose-only effect, or another doubt; inactive = no such curve, though single readings can be large; an effect the other way counts as inactive or inconclusive.
# What was measured:
# [1] = Cell Viability - LYMP1-003 - Assay at 40 hr (AID 964); also: nearly all actives have a fitted effect of over 60% in size
# Method in brief: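 Human lymphoblastoid LYMP1-003 cells, 2500/well in complete medium, rested 5 hr at 37 C, then exposed to compounds for 40 hr at 37 C. Viability read as intracellular ATP by CellTiter-Glo luminescence; AC50 from Hill fits of concentration-response data.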
# [2] = Cell Viability - LYMP2-003 (AID 965);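 also: cells exposed to compounds for 24 h before reading; nearly all actives have a fitted effect of over 50% in size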
# Method in brief: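 Acute cytotoxicity is scored as a concentration-dependent drop in intracellular ATP, measured by luciferase luminescence in human lymphoblastoid cells treated for 24 hours at 37 C. AC50 values derive from Hill-equation modelling.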
# [3] = Cell Viability - LYMP2-004 (AID 966); also: nearly all actives have a fitted effect of over 65% in size
# Method in brief: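 Human lymphoblastoid cells (2500/well) in complete medium were treated with compounds for 24 hr at 37 C, then intracellular ATP was measured by CellTiter-Glo luminescence. AC50 values came from Hill-equation fits of concentration-response data.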
# [4] = Cell Viability - LYMP2-009 (AID 968); also: nearly all actives have a fitted effect of over 55% in size;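 as to activity change, negative = viability loss: 0% = DMSO alone and the full-kill end = tetraoctylammonium bromide at 92 µM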
# [5] = Cell Viability - LYMP2-011 (AID 969); also: nearly all actives have a fitted effect of over 60% in size
# Method in brief: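 Human lymphoblastoid cells (2500/well) were plated in complete medium, preincubated 5 hr at 37 C, then exposed to compounds for 24 hr at 37 C. Intracellular ATP was read by CellTiter-Glo luminescence, and AC50 came from Hill-equation concentration-response fits.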
# [6] = Cell Viability - LYMP2-013 (AID 970); also: nearly all actives have a fitted effect of over 55% in size
# Method in brief: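 Human lymphoblastoid cells, 2500/well, were preincubated 5 hr at 37 C, then treated with compounds for 24 hr at 37 C in complete medium. Intracellular ATP was read by CellTiter-Glo luminescence; AC50 from Hill-equation fits of concentration-response data.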
# [7] = Cell Viability - LYMP2-015 (AID 971); also: nearly all actives have a fitted effect of over 55% in size
# Method in brief: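 Human lymphoblastoid cells (2500/well) in complete medium were preincubated 5 hr at 37 C, then compound-treated 24 hr at 37 C. Intracellular ATP was read by CellTiter-Glo luminescence after 30 min at room temperature; AC50 came from Hill-equation concentration-response fits.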
# [8] = Cell Viability - LYMP2-017 (AID 972); also: nearly all actives have a fitted effect of over 55% in size
# Method in brief: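 Human lymphoblastoid cells (2500/well) were seeded in complete medium, held 5 hr at 37 C, then exposed to compounds for 24 hr at 37 C. Intracellular ATP was read by CellTiter-Glo luminescence after 30 min at room temperature, with AC50 values from Hill-equation fits.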
# [9] = Cell Viability - LYMP2-019 (AID 973); also: nearly all actives have a fitted effect of over 55% in size
# Method in brief: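 Human lymphoblastoid cells were seeded at 2500 cells/well, preincubated 5 hr at 37 C, then exposed to compounds for 24 hr at 37 C in complete medium. Intracellular ATP was measured by CellTiter-Glo luminescence; AC50 from Hill fits.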
# [10] = Cell Viability - LYMP2-005 (AID 967); settings: LYMP2-005 lymphoblastoid cell viability; activity change, negative = viability loss: at 92.2 µM (top of the series);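 as to activity change, negative = viability loss: plate controls were DMSO only for no effect and 92 µM tetraoctylammonium bromide control for full effect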
# Method in brief: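 qHTS viability screen in LYMP2-005 cells: 24 h at 37 C with compound, ATP luminescence via CellTiter-Glo, AC50 from Hill curves.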
# Potency is read from the fitted curve at half-maximal effect.
smiles,measurement,setting,value
C[C@]12C/C(=C/O)C(=O)C[C@@H]1CC[C@@H]1[C@@H]2CC[C@@]2(C)[C@H]1CC[C@]2(C)O,Potency,[1],"inconclusive: 39.8 µM [cytotoxic, single point]"
same,Potency,[2],"inconclusive: 50.1 µM [cytotoxic, partial curve, poor fit]"
same,Potency,[3],"inconclusive: 39.8 µM [cytotoxic, partial curve]"
same,Potency,[4],"inconclusive: 63.1 µM [cytotoxic, single point]"
same,Potency,[5],"inconclusive: 63.1 µM [cytotoxic, partial curve, poor fit]"
same,Potency,[6],"inconclusive: 79.4 µM [cytotoxic, single point]"
same,Potency,[7],"inconclusive: 79.4 µM [cytotoxic, single point]"
same,Potency,[8],"inconclusive: 50.1 µM [cytotoxic, single point]"
same,Potency,[9],"inconclusive: 50.1 µM [cytotoxic, partial curve]"
Nc1ccc(Cl)cc1,Potency,[2],inactive
O=[N+]([O-])c1cc([N+](=O)[O-])c2ccccc2c1,Potency,[1],inactive
same,Potency,[10],inactive
Oc1ccc(Cl)cc1,Potency,[3],"inconclusive: 79.4 µM [rising, single point]"
same,Potency,[10],"inconclusive: 79.4 µM [rising, single point]"
same,Potency,[5],inactive
CNC(=O)Oc1cccc2ccccc12,Potency,[1],"inconclusive: 1.26 µM [cytotoxic, full curve, poor fit]"
same,Potency,[9],inactive
C[C@H]1CC[C@@H]2[C@@H](C)[C@H]3[C@H](C[C@H]4[C@@H]5CC=C6CC(O[C@@H]7O[C@H](CO)[C@H](O)[C@H](O[C@@H]8O[C@H](CO)[C@@H](O)[C@H](O)[C@H]8O)[C@H]7O[C@H]7O[C@@H](C)[C@H](O)[C@@H](O)[C@H]7O)CC[C@]6(C)[C@H]5CC[C@]34C)N2C1 (some centres undefined),Potency,[1],active: 39.8 µM
same,Potency,[2],"inconclusive: 79.4 µM [cytotoxic, single point]"
same,Potency,[10],"inconclusive: 63.1 µM [cytotoxic, partial curve, poor fit]"
same,Potency,[6],active: 39.8 µM
same,Potency,[7],"inconclusive: 50.1 µM [cytotoxic, partial curve, poor fit]"
same,Potency,[8],active: 50.1 µM
same,Potency,[9],active: 39.8 µM
CN(C)C(=S)SSC(=S)N(C)C,Potency,[1],"inconclusive: 1 µM [cytotoxic, full curve, poor fit]"
same,Potency,[3],active: 0.251 µM
same,Potency,[10],active: 0.501 µM
same,Potency,[5],active: 0.316 µM
same,Potency,[6],active: 0.398 µM
O=C1CCO1,Potency,[1],inactive
same,Potency,[10],inactive
CNCC(O)c1ccc(O)cc1 (centres undefined),Potency,[4],inactive
O=C1C2CC=CCC2C(=O)N1SC(Cl)(Cl)Cl (centres undefined),Potency,[3],active: 10 µM
same,Potency,[10],active: 12.6 µM
same,Potency,[6],active: 5.01 µM and active: 6.31 µM
same,Potency,[7],active: 3.98 µM
same,Potency,[8],active: 3.16 µM and active: 5.01 µM
Nc1ccc(Cl)cc1N,Potency,[3],"inconclusive: 10 µM [cytotoxic, partial curve, poor fit]"
same,Potency,[7],"inconclusive: 15.8 µM [cytotoxic, partial curve, poor fit]"
C[C@]12CCC(=O)C[C@@H]1CC[C@@H]1[C@@H]2CC[C@]2(C)[C@@H](O)CC[C@@H]12,Potency,[9],"inconclusive: 50.1 µM [cytotoxic, partial curve, poor fit]"
Nc1ccccc1C(=O)O,Potency,[10],"inconclusive: 0.0158 µM [cytotoxic, full curve, poor fit]"
CCOP(=O)(NC(C)C)Oc1ccc(SC)c(C)c1 (centres undefined),Potency,[5],inactive
CCOCCOC(C)=O,Potency,[10],inactive
O=S(=O)(c1ccc(Cl)cc1)c1ccc(Cl)cc1,"activity change, negative = viability loss",[10],inconclusive: -44.2% [cytotoxic]
same,Potency,[6],inactive
CN(C)[C@@H]1C(=O)C(C(N)=O)=C(O)[C@@]2(O)C(=O)C3=C(O)c4c(O)cccc4[C@@](C)(O)[C@H]3[C@H](O)[C@@H]12,Potency,[8],inactive
O=[N+]([O-])c1c(Cl)c(Cl)cc(Cl)c1Cl,Potency,[10],inactive
CCCCCl,Potency,[10],"inconclusive: 39.8 µM [cytotoxic, partial curve, poor fit]"
CCOC(=O)CC(SP(=S)(OC)OC)C(=O)OCC (centres undefined),Potency,[10],"inconclusive: 0.0008 µM [cytotoxic, full curve, poor fit]"
c1cc2ccc3cccc4ccc(c1)c2c34,Potency,[7],inactive
same,Potency,[9],inactive
C1CCC(NC2CCCCC2)CC1,Potency,[4],inactive
CCCCCCCCCCCC[N+](C)(C)CCOc1ccccc1,Potency,[3],"inconclusive: 39.8 µM [cytotoxic, partial curve, poor fit]"
same,Potency,[10],"inconclusive: 50.1 µM [cytotoxic, partial curve, poor fit]"
same,Potency,[6],active: 31.6 µM
same,Potency,[8],active: 39.8 µM
Oc1cc(Cl)c(Cl)cc1Cl,Potency,[10],inactive
same,Potency,[6],inactive
CN1C[C@H](C(=O)N[C@]2(C)O[C@@]3(O)[C@@H]4CCCN4C(=O)[C@H](Cc4ccccc4)N3C2=O)C=C2c3cccc4[nH]cc(c34)C[C@H]21,Potency,[10],"inconclusive: 50.1 µM [cytotoxic, partial curve, poor fit]"
same,Potency,[7],"inconclusive: 39.8 µM [cytotoxic, partial curve, poor fit]"
same,Potency,[9],"inconclusive: 50.1 µM [cytotoxic, partial curve, poor fit]"
CCCC(C)(COC(N)=O)COC(=O)NC(C)C (centres undefined),Potency,[8],inactive
COc1ccc(C(c2ccc(OC)cc2)C(Cl)(Cl)Cl)cc1,Potency,[10],"inconclusive: 79.4 µM [cytotoxic, single point]"
Oc1cccc2cccnc12,Potency,[9],active: 10 µM
Nc1ccc([N+](=O)[O-])cc1,Potency,[10],"inconclusive: 79.4 µM [rising, single point]"
COc1cc(OC)c(OC)cc1C=O,Potency,[10],inactive
same,Potency,[4],inactive
[O]=[Cr](=[O])([OH])[O][Cr](=[O])(=[O])[OH],Potency,[10],"active: 10 µM and active: 15.8 µM and inconclusive: 6.31 µM [cytotoxic, full curve, poor fit]"
same,Potency,[9],active: 12.6 µM and active: 10 µM
